Taken from: PubChem BioAssay AID1259308 (NCATS, 2017)

Assay: 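Genes whose loss raises luciferase production in HEK293 cells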 (primary screen)
Cells: human HEK293 embryonic kidney cells stably expressing firefly luciferase (HEK-CMV-Luc2-Hygro)
Reagent: single siRNA against human genes, 0.8 pmol siRNA per well
Time to read-out: 72 h
Measurement: 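Luciferase light (ONE-Glo) measured on one replicate plate set and viability (CellTiter-Glo) on the other, scaled to a negative control siRNA, with robust z-scores and luciferase per cell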
Scale: total luciferase, z-score and total luciferase, % of control: higher = more reporter protein produced; luciferase per cell, z-score: higher = more reporter output per viable cell; viable cells, % of control: higher = more viable cells
Hit rule: 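Active when the median/MAD z-score for overall luciferase is greater than 3; a gene was taken forward for validation with new siRNAs if at least two of its three siRNAs passed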
Calls: active = raised luciferase; inactive = no rise
This is one part, drawn at random, of about 59,000 reagents. About 1,510 of them (2.6%) count as active. 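Calls use total luciferase alone and ignore viability, so some active siRNAs may act by altering cell number.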 Entries without a mark were called inactive. The numbers tell different reagents against one gene apart.

no.	gene symbol	reagent	total luciferase, z-score	total luciferase, % of control	luciferase per cell, z-score	viable cells, % of control
1	ROBO3 (roundabout guidance receptor 3)	1	-1.79	46.3	-1.74	81.7
2	ROBO3 (roundabout guidance receptor 3)	2	-0.91	63.8	-0.384	78.9
3	ROBO3 (roundabout guidance receptor 3)	3	-0.947	63.1	-0.555	81.5
4	OGFRP1 (opioid growth factor receptor pseudogene 1)	1	1.76	117	0.938	102
5	OGFRP1 (opioid growth factor receptor pseudogene 1)	2	-0.0864	80.2	-0.574	104
6	OGFRP1 (opioid growth factor receptor pseudogene 1)	3	-0.725	67.5	-0.223	79.9
7	CLEC2L (C-type lectin domain family 2 member L)	1	2.22	126	1.29	100
8	CLEC2L (C-type lectin domain family 2 member L)	2	-0.666	68.6	0.0239	76.2
9	CLEC2L (C-type lectin domain family 2 member L)	3	0.525	92.3	0.45	91.7
10	MTRF1L (mitochondrial translation release factor 1 like)	1	0.178	85.4	0.021	94.9
11	MTRF1L (mitochondrial translation release factor 1 like)	2	0.518	92.2	1.48	69.9
12	MTRF1L (mitochondrial translation release factor 1 like)	3	0.191	85.7	-0.191	101
13	PIGYP1 (PIGY pseudogene 1)	1	-0.723	67.5	-1.08	100
14	PIGYP1 (PIGY pseudogene 1)	2	0.625	94.3	0.67	88.4
15	PIGYP1 (PIGY pseudogene 1)	3	1.26	107	1.18	87.6
16	PTPRH (protein tyrosine phosphatase receptor type H)	1	0.824	98.3	0.468	97.1
17	PTPRH (protein tyrosine phosphatase receptor type H)	2	-1.87	44.6	-2	84.5
18	PTPRH (protein tyrosine phosphatase receptor type H)	3	-0.858	64.8	-0.644	85.8
19	ZNF333 (zinc finger protein 333)	1	-0.129	79.3	0.123	85.8
20	ZNF333 (zinc finger protein 333)	2	0.0364	82.6	0.0638	90.8
21	ZNF333 (zinc finger protein 333)	3	1.6	114	1.82	78.7
22	DBNDD2 (dysbindin domain containing 2)	1	0.897	99.7	1.2	81.3
23	DBNDD2 (dysbindin domain containing 2)	2	3.03 (active)	142	2.5	82.2
24	DBNDD2 (dysbindin domain containing 2)	3	0.0856	83.6	-0.0607	94.9
25	TMEM234 (transmembrane protein 234)	1	-0.107	79.7	0.0867	87.1
26	TMEM234 (transmembrane protein 234)	2	2.56	133	1.55	98.5
27	TMEM234 (transmembrane protein 234)	3	0.901	99.8	1.06	84.4
28	PHLPP1 (PH domain and leucine rich repeat protein phosphatase 1)	1	-0.067	80.6	-0.281	96.9
29	PHLPP1 (PH domain and leucine rich repeat protein phosphatase 1)	2	0.702	95.9	0.605	91.3
30	PHLPP1 (PH domain and leucine rich repeat protein phosphatase 1)	3	0.0752	83.4	-0.0189	93.6
31	SMIM11 (small integral membrane protein 11)	1	-0.79	66.2	1	56.8
32	SMIM11 (small integral membrane protein 11)	2	-0.528	71.4	-0.0786	81.4
33	SMIM11 (small integral membrane protein 11)	3	0.4	89.8	0.37	91.1
34	BUD13 (BUD13 spliceosome associated protein)	1	1.46	111	1.47	84.2
35	BUD13 (BUD13 spliceosome associated protein)	2	-0.597	70	-0.414	87.3
36	BUD13 (BUD13 spliceosome associated protein)	3	-0.478	72.4	0.168	77.4
37	KPRP (keratinocyte proline rich protein)	1	1.39	109	0.808	98.9
38	KPRP (keratinocyte proline rich protein)	2	0.812	98	0.647	92.4
39	KPRP (keratinocyte proline rich protein)	3	-2.04	41.4	-1.05	61
40	OR10A4 (olfactory receptor family 10 subfamily A member 4)	1	-0.0402	81.1	0.352	82.6
41	OR10A4 (olfactory receptor family 10 subfamily A member 4)	2	-0.684	68.3	-0.646	90.4
42	OR10A4 (olfactory receptor family 10 subfamily A member 4)	3	1.11	104	0.743	95.6
43	SEC24B (SEC24 homolog B, COPII component)	1	0.876	99.3	0.537	96.3
44	SEC24B (SEC24 homolog B, COPII component)	2	-0.964	62.7	-0.651	83.2
45	SEC24B (SEC24 homolog B, COPII component)	3	-0.981	62.4	-1.49	103
46	C3orf49 (chromosome 3 open reading frame 49)	1	0.345	88.7	0.271	92.3
47	C3orf49 (chromosome 3 open reading frame 49)	2	0.979	101	0.92	88.9
48	C3orf49 (chromosome 3 open reading frame 49)	3	-0.729	67.4	0.0466	74.4
49	MYADM (myeloid associated differentiation marker)	1	2.28	127	1.71	90.6
50	MYADM (myeloid associated differentiation marker)	2	-0.129	79.3	-0.113	91.3
51	MYADM (myeloid associated differentiation marker)	3	-0.052	80.9	1.74	57.1
52	ARHGAP20 (Rho GTPase activating protein 20)	1	0.105	84	0.337	85.9
53	ARHGAP20 (Rho GTPase activating protein 20)	2	0.422	90.3	0.355	91.9
54	ARHGAP20 (Rho GTPase activating protein 20)	3	0.795	97.7	1.45	74.6
55	FZD1 (frizzled class receptor 1)	1	-2.05	41.1	-1.64	70.7
56	FZD1 (frizzled class receptor 1)	2	-1.13	59.4	-1.37	95.3
57	FZD1 (frizzled class receptor 1)	3	0.479	91.4	0.233	96.1

Called active, among the entries above:
gene symbol	reagent	total luciferase, z-score	total luciferase, % of control	luciferase per cell, z-score	viable cells, % of control
DBNDD2 (dysbindin domain containing 2)	2	3.03 (active)	142	2.5	82.2
